Laboratory results published in patent US5948754A (Takeda Chemical Industries, Ltd., priority 1993, dated 1999).
Strings that start with PEPTIDE1 are HELM notation: dots part the residues, brackets hold end groups and non-standard residues.

Test: general procedure: solution-phase peptide synthesis; DCC/HONB (ONB active esters)
Settings: purification step

With “PEPTIDE1{[dD].[Asp(B7)].D.[D-gMeLeu].L.[dW]}$PEPTIDE1,PEPTIDE1,1:R1-6:R2$$$V2.0” the step yield was “preparatory HPLC recovery 32%”.
